The text below walks through data of paper PMC10888192, “New Derivatives of 1-(3-Methyl-1-Benzofuran-2-yl)Ethan-1-one: Synthesis and Preliminary Studies of Biological Activity” (International Journal of Molecular Sciences, 2024).

The data set relates to K562 cells (human chronic myelogenous leukemia). The data set is described as follows: MTT cytotoxicity assay, K562. It counts as cell-based. The conditions noted are these: ratio of IC50 values in HaCat to cancer cells (K562). Here is the method:
The cell viability was analyzed at the following six concentrations of compounds: 5, 10, 20, 40, 60 and 100 µM after 72 h incubation.
Additionally, to determine the safety profile of the tested compounds, the therapeutic index (TI) (the ratio of IC50 value in HaCaT to cancer cells K562) was calculated. […] The goal of conducting the MTT assay in this research was to select benzofuran derivatives, which manage to reduce viability of cancer cells while exposing mild effects on normal healthy cells.
The cytotoxicity was evaluated by MTT reduction assay, which measures mitochondrial respiratory function. The test was performed based on the method described by Präbst et al.. Cells (1 × 10^4/well), in logarithmic phase, were seeded into 96-well plates in appropriate medium. After 24 h, cells were exposed to test compounds. […] After 72 h, the medium with the compounds was completely removed and MTT solution (0.5 mg/mL) in fresh medium without serum was added to each well. Plates with cells were incubated for 4 h at 37 °C in the dark. Then, MTT solution was removed and replenished with 0.1 mL DMSO: isopropanol (1:1) mixture to dissolve the generated formazan crystals. The optical density was measured with a […] GO (ThermoScientific) microplate reader at 570 nm. Replicates of three wells for each dosage, including vehicle control, were analyzed for each experiment. The experiments were conducted in triplicate. Control cells which were only treated with respective medium were used as the 100% viability value. […] Additionally, to determine the safety profile of the test compounds, therapeutic indexes (TI) (the ratio of IC50 values in HaCat to cancer cells (K562, PC3, SW620, Cack-1)) were calculated.
In general terms: Tetrazolium assays rely on reduction of a dye to a coloured formazan, in cell work by metabolically active cells.
For the compound `COc1cc(OC)c2c(C)c(C(C)=O)oc2c1` [Compound 2, 1-(4,6-Dimethoxy-3-Methyl-1-Benzofuran-2-yl)Ethanone], the “Therapeutic index (TI)” value is listed as 1.853.

Consider `CCOc1ccc2c(C)c(C(C)=O)oc2c1` [Compound 4, 1-(6-Ethoxy-3-Methyl-1-Benzofuran-2-yl)Ethanone], for which the “Therapeutic index (TI)” value was determined as 0.925.

With `COc1ccc2oc(C(C)=O)c(CBr)c2c1` [Compound 5, 1-[3-(Bromomethyl)-5-Methoxy-1-Benzofuran-2-yl]Ethanone], the “Therapeutic index (TI)” value was found to be 1.450.

For `COc1cc2oc(C(C)=O)c(CBr)c2c(OC)c1Br` [Compound 7, 1-[5-Bromo-3-(Bromomethyl)-4,6-Dimethoxy-1-Benzofuran-2-yl]Ethanone], the “Therapeutic index (TI)” value stood at 0.114.

For the compound `CCOc1ccc2c(CBr)c(C(C)=O)oc2c1` [Compound 9, 1-[3-(Bromomethyl)-6-Ethoxy-1-Benzofuran-2-yl]Ethanone], the “Therapeutic index (TI)” value is 1.583.
